In PMC6925144, “A prospective compound screening contest identified broader inhibitors for Sirtuin 1” (Scientific Reports, 2019):
In all, about 3,200 compounds were measured (“TSA(without NAD+) / Primary screening (TSA) / delta Tm (K)”: median about -0.07, highest 2% from about 0.37 on). The list shows a part of the results.

By UniProt entry, the sequences of proteins in these tests, tags left out. Residues count along the entry.
UniProt Q96EB6, 2-747 limits assumed: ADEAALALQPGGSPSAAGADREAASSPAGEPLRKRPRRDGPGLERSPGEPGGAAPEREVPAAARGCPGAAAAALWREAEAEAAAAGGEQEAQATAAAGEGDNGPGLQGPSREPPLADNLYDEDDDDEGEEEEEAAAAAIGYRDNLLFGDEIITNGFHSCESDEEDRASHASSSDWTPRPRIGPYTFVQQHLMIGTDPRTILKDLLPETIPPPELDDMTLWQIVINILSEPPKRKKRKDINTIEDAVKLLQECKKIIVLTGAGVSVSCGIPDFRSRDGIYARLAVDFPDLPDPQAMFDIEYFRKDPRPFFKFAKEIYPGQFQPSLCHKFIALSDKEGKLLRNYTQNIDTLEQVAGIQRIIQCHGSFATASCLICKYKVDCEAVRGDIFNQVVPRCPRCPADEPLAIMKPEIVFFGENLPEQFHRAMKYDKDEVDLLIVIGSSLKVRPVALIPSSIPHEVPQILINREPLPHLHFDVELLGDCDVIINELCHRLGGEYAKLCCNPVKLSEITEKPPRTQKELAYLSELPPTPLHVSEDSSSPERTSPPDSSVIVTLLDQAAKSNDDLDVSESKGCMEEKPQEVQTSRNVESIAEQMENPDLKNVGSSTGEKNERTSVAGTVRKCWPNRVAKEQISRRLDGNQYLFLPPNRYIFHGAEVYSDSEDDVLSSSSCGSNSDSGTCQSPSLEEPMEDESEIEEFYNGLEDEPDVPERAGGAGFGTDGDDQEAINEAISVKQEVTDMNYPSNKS

biological target: NAD-dependent deacetylase Sirtuin 1 (human, UniProt Q96EB6); assay: primary screen, delta tm; parameters: single well (n = 1); conditions: 10 µM
How it was run: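 Thermal shift of Sirtuin 1 measured without NAD+, compound at 10 µM (n = 1); value is ΔTm, with hits defined as ΔTm > 0.45 K or < −1.5 K. Hits retested at 5, 10, 20 µM (n = 4) and counterscreened on bovine carbonic anhydrase and ABL1 SH2 domain.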

Structure (SMILES) | TSA(without NAD+) / Primary screening (TSA) / delta Tm (K)
O=C1NC(=S)NC(=O)C1=NNc1ccc(OC(F)F)cc1 | -0.15
Cc1nc2c3ccccc3nc(N3CCC(C4(C)NC(=O)NC4=O)CC3)n2n1 (stereo not drawn) | -0.15
N#C/C(=C\c1ccc(-c2ccc(Cl)c(C(F)(F)F)c2)o1)C(N)=S | 0.12
C/C(=N/N)c1ccc2c(c1)-c1ccccc1C2 | -0.01
O=C(Nc1ccccc1O)C1CCN(c2ncnc3scc(-c4ccc(F)cc4)c23)CC1 | -0.18
Cc1ccc(C23CC4CC(CC(C(=O)N5CCN(S(=O)(=O)c6ccccc6)CC5)(C4)C2)C3)cc1 | -0.27
Cc1nc(CN2CCN(S(=O)(=O)c3cc(C(N)=O)n(C)c3)CC2)cs1 | -0.08
Cc1cnn(C2CCCN(C(=O)c3ccc(C(N)=S)cc3)C2)c1 (stereo not drawn) | -0.24
Cc1ccn2c(=O)cc(Cn3cnc4c(oc5ccccc54)c3=O)nc2c1 | -0.17
CC(C)N(CC(=O)Nc1cc(C(N)=O)cc(C(N)=O)c1)Cc1ccccc1 | 0.02
O=C(Cc1cccnc1)Nc1ccccc1N1CCC(CO)CC1 | 0.19
O=C(COC(=O)c1ccc(CNS(=O)(=O)c2ccc(F)c(Cl)c2)cc1)c1ccccc1 | -0.03
COc1ccc(N2C(=O)C(=O)N(CC(=O)Nc3ccccc3SCc3ccccc3)C2=O)cc1 | 0.27
O=C(CSc1ccccc1)Nc1cc2c(=O)[nH]cnc2cc1F | -0.28
O=c1oc(-c2ccc(F)cc2)nn1Cc1nc2ccccc2s1 | -0.18
O=C1c2ccccc2NC(c2ccc(Cl)cc2)N1C1CC1 (stereo not drawn) | -0.22
CC1CCCN(C(=O)c2ccc(/C=C/c3ccc4ccccc4n3)cc2)C1 (stereo not drawn) | -0.21
Cc1nc(N2CCN(Cc3ccncc3)CC2)c2c(-c3cccs3)csc2n1 | -0.08
COc1ccccc1NS(=O)(=O)c1ccc(NC(=O)CNC(=O)C23CC4CC(CC(C4)C2)C3)cc1 | 0.03
CCn1cnnc1-c1cccc(NC(=O)c2cc(C(N)=O)cn2C)c1 | -0.05
Cc1cccc(N2CCN(C(=O)c3ccc(C(C)(C)C)cc3)CC2)c1C | -0.02
COc1cccc(N2CCN(CCC(=O)Nc3ccc(C(N)=O)cc3)CC2)c1 | 0.08
NC(=O)C1CCCCN1C(=O)CSc1nc2cc(Cl)ccc2[nH]1 (stereo not drawn) | -0.22
O=C(Nc1cccc(S(=O)(=O)NCc2ccco2)c1)c1ccccc1SCC(=O)N1CCCC1 | -0.18

A few values from the results shown.
Entry for COc1ccccc1NS(=O)(=O)c1ccc(NC(=O)CNC(=O)C23CC4CC(CC(C4)C2)C3)cc1 under TSA(without NAD+) / Primary screening (TSA) / delta Tm (K): 0.03
Entry for Cc1cnn(C2CCCN(C(=O)c3ccc(C(N)=S)cc3)C2)c1 (stereo not drawn) under TSA(without NAD+) / Primary screening (TSA) / delta Tm (K): -0.24
